A short description of the test: qHTS Assay for Lipid Storage Modulators in Drosophila S3 Cells.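 On cell number change: cells counted by Cell Tracker Red CMTPX staining in the red channel.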 To be noted: BODIPY lipid droplet fluorescence, 18-24 h; for cell number change: measured here: cell count max response, cells fed with added oleic acid. In outline: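 Drosophila S3 cells got compounds at several concentrations plus oleic acid (400 uM solution). Laser-scanning cytometry with 488 nm excitation read lipid droplets at 500-530 nm and cells at 575-640 nm. Percent activity was relative to 20 uM Triacsin C.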
In general terms: In qHTS, concentration-response curves come from the screen itself.

[1] abbreviates: measured here: lipid fluorescence (Fed channel) AC50, cells fed with added oleic acid.
[2] abbreviates: measured here: cell number channel AC50, cells fed with added oleic acid.

One may read the AC50 as the midpoint of the concentration-response curve, whichever way the signal moves. A lower AC50 goes with activity at low concentration.

The list shows a part of the results. Further columns of the screen follow, without active or inactive calls. The list favours compounds with an active or inconclusive main result. The note in brackets gives the kind of curve behind each potency; many fits are weak.

Turning to `COC(=O)c1cn(Cc2ccccc2C)nn1`, the cell number change stood at 12%. Further, the AC50 under setting [1] is 29.1 µM [rising, single point].

For the molecule `COc1ccc(N(CC(=O)Nc2ccc(C)c(C)c2)S(=O)(=O)c2c(C)noc2C)cc1`, the cell number change is -14.6%. For the same molecule, under setting [1], the AC50 is 1.84 µM [falling, partial curve, poor fit].

Take `Cn1c(-c2ccc(C(F)(F)F)cc2)cc2onc(-c3ccccc3)c2c1=O`: the cell number change is -13%. Further, under setting [1], the AC50 was 1.64 µM [rising, partial curve].

Consider `CC(C)(C)NS(=O)(=O)c1ccc(CCC(=O)N2CCCCC2)cc1`, for which the cell number change is -1.39%. In addition, the AC50 under setting [1] is 6.51 µM [falling, single point].

Take `Cc1csc(NC(=O)c2nc3nc(C)cc(C)n3n2)n1`: the cell number change was -37.7%. In addition, the AC50 under setting [2] is 20.6 µM [falling, single point]. Also, the AC50 under setting [1] was 0.366 µM [falling, full curve].

Turning to `Cc1ccccc1C(=O)NC1CCCN(Cc2ccccc2F)C1` (stereo not given), the cell number change stood at 21.6%. The AC50 under setting [1] was 8.2 µM [rising, partial curve].

For the molecule `Cc1ccc(NC(=O)CCn2nc(C)cc2C)cc1`, the cell number change stood at 55.1%. Besides, the AC50 under setting [2] was 29.1 µM [rising, single point]. In addition, the concentration at half-maximal activity (AC50) under setting [1] is 29.1 µM [rising, single point].

On to `CC(C)NC(=O)NC(=O)COC(=O)c1ccccc1O`, for which the cell number change is -14.6%. Moreover, under setting [1], the AC50 is 4.61 µM [falling, partial curve, poor fit].

In the case of `COCc1c(C(=O)N/N=C(\C)c2ccc(Cl)s2)nnn1-c1nonc1N`, the cell number change is -28.6%.

Regarding `COc1ccc(S(=O)(=O)c2nnn(-c3cccc(OC)c3)c2N)cc1`, the cell number change is 60.5%.

Consider `CCc1cc(=O)oc2cc(C)cc(OCC(=O)N3CCC[C@@H]3C(=O)O)c12`, for which the cell number change was 13.9%. Also, the AC50 under setting [1] is 29.1 µM [rising, partial curve, poor fit].

Take `O=C(COc1ccc2ccccc2c1Br)Nc1ncn[nH]1`: the cell number change was determined as 32.5%.

Consider `CCc1cc(-c2n[nH]c(C)c2-c2nc(C)cs2)c(O)cc1OC`, for which the cell number change is -33.4%. Also, the AC50 under setting [2] is 16.4 µM [falling, single point]. Also, the AC50 under setting [1] is 29.1 µM [falling, single point].

For the molecule `N/C(=N\OC(=O)CCc1ccccc1)c1ccccc1Cl`, the cell number change worked out at 35.3%. Under setting [2], the AC50 was 20.6 µM [rising, single point].

For `O=S(=O)(c1cccc(Cl)c1)N1CCCC1`, the cell number change is -156%. In addition, the AC50 under setting [2] is 6.51 µM [rising, single point]. Besides, under setting [1], the AC50 was 6.51 µM [falling, single point].

As for `N#Cc1c(-c2ccccc2)cc(C2CC2)nc1N`, the cell number change was -28.5%.

For the molecule `O=C(CSCC(=O)NC1CCCC1)Nc1ccccc1`, the AC50 under setting [1] is 29.1 µM [rising, single point].

With `Cc1c(-c2nc(-c3cccnc3)no2)cccc1[N+](=O)[O-]`, the AC50 was 1.46 µM [falling, partial curve] under setting [2] and 3.66 µM [falling, single point] under setting [1].

On to `O=S(=O)(NC1CCCCC1)c1cccc2nsnc12`, for which the cell number change was found to be 31.5%. The AC50 under setting [2] was 32.6 µM [rising, partial curve, poor fit].

In the case of `COc1cccc(Cn2c(N)c(C#N)c3nc4ccccc4nc32)c1OC`, the cell number change was -37%. Further, the concentration at half-maximal activity (AC50) under setting [2] was 6.51 µM [falling, partial curve, poor fit]. In addition, the AC50 under setting [1] was 32.6 µM [falling, single point].

Regarding `O=C(NCc1ccncc1)c1cccc(S(=O)(=O)NCc2ccccc2)c1`, the cell number change was 20%. The AC50 under setting [1] is 6.51 µM [rising, full curve, poor fit].

On to `CCCOc1ccccc1NC(=O)c1c(-c2ccccc2)noc1C`, for which, under setting [1], the AC50 was 0.731 µM [falling, single point].

With `COc1cccc(OC)c1C(=O)Nc1ccc(N2CCN(C(=O)c3cccs3)CC2)cc1`, the cell number change is -12.2%. Further, the AC50 under setting [1] is 1.84 µM [rising, partial curve].

`Cc1ccc(OCC(=O)N(Cc2cccs2)C2CCS(=O)(=O)C2)cc1` (stereo not given): the cell number change was -3.98%. For the same molecule, the AC50 under setting [2] was 0.164 µM [rising, full curve, poor fit]. Further, under setting [1], the AC50 is 0.58 µM [rising, full curve, poor fit].

Regarding `COc1ccccc1C(=O)Nc1ccc2c(c1)CCCN2C(=O)c1ccccc1`, the cell number change was -4.03%. For the same molecule, the AC50 under setting [1] was 7.31 µM [falling, partial curve].

For `Cc1ccc(S(=O)(=O)N2CCN(c3ccccc3)CC2)c(C)c1`, the AC50 under setting [1] was 0.731 µM [falling, single point].

Consider `O=C(NCCCN1CCc2ccccc2C1)C1CCN(c2nnc(-n3cccc3)s2)CC1`, for which the cell number change was determined as 0.801%. For the same molecule, the AC50 under setting [1] was 0.0411 µM [rising, full curve, poor fit].

Consider `c1coc(CN=C2NC(=NCc3ccco3)c3ccccc32)c1`, for which the cell number change is -20.3%. Under setting [1], the AC50 is 0.82 µM [rising, partial curve, poor fit].

As to `CCOC(=O)N1C(=O)C2(CCCCC2)N(c2ccccc2Cl)C1=S`, the cell number change is -66.7%. The AC50 under setting [2] is 29.1 µM [falling, single point].

Regarding `COc1ccc2[nH]c3c(c2c1)CCN1C(=O)N([C@@H](C)C(=O)NC2CC2)C(=O)[C@]31C`, the cell number change is -4.53%. Under setting [1], the AC50 is 29.1 µM [falling, single point].

`COC(=O)c1cc2ccsc2n1CC(=O)N(C)c1ccccc1`: the cell number change was 116%.

In the case of `COC(=O)c1ccc(S(=O)(=O)N2Cc3ccccc3C2)cc1`, the cell number change was -27.7%.

With `C=CCn1c(CNC(=O)c2ccco2)nnc1SCC(=O)c1ccc(F)cc1`, the cell number change was -14.5%.

`Cc1ccc(CNC(=O)/C=C/c2ccc(S(=O)(=O)N3CCOCC3)cc2)cc1`: the cell number change amounted to 20.3%. Also, under setting [1], the AC50 was 1.64 µM [rising, full curve, poor fit].

With `COc1ccc(CC(=O)O/N=C(\N)c2ccccn2)cc1OC`, the cell number change was -7.8%. Under setting [1], the AC50 was 29.1 µM [rising, single point].

Consider `O=C(NC1CC1)C1CCN(C2CCN(C(=O)c3c(F)cccc3Cl)CC2)CC1`, for which the cell number change was determined as 8.4%. For the same molecule, the AC50 under setting [1] is 0.461 µM [falling, single point].

Consider `CCc1nn2c(=O)cc(CSc3nc(C)cc(=O)[nH]3)nc2s1`, for which the cell number change was determined as 18.4%. Moreover, the AC50 under setting [1] was 29.1 µM [rising, single point].

For the molecule `CCCCN(C(=O)c1ccc([N+](=O)[O-])o1)c1c(N)n(CCCC)c(=O)[nH]c1=O`, the cell number change is -15%. Also, under setting [2], the AC50 was 5.17 µM [falling, single point]. Moreover, the AC50 under setting [1] is 6.51 µM [falling, single point].

In the case of `OC(CSc1ccc(F)cc1)CN1CCN(c2ccccc2)CC1` (stereo not given), the cell number change was -37.6%. The AC50 under setting [2] was 0.0058 µM [falling, full curve, poor fit].
